Source: paper PMC7368280
Results are given in words; binding and its absence hold for the method and conditions named. In cells and extracts the contact can be indirect. These calls come from enrichment with a bait or labelling near it, and not all partners need be listed. For some of these results: A no says only that the protein was not detected with the bait. Sequences can lack the tags named with a protein.

Protein sequences, listed by entry. Tags and fused reporters are not part of them.
UniProt O22467: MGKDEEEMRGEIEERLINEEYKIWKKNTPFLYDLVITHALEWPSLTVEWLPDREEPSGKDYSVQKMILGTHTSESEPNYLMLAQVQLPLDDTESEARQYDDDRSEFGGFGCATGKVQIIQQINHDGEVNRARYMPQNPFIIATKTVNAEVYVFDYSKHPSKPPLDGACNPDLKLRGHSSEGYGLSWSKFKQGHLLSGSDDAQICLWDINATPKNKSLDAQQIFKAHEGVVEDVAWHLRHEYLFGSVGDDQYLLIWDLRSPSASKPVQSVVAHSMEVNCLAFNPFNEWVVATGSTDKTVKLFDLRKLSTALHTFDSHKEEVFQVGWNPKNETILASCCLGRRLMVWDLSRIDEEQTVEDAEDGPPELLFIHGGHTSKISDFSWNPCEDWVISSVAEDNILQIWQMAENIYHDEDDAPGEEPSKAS

What was measured:
[1] = molecular target: T1, ICU11-eGFP (gICU11-GFP in icu11-3) (Arabidopsis) (UniProt Q3ED68); test: affinity purification with mass spectrometry; coIP-MS with GFP-tagged baits from Arabidopsis plants (gICU11-GFP icu11-3; 35S:GFP-CLF clf-50; gSWN-GFP), control 35S::GFP; two independent experiments; procedure in SI Appendix
T1 sequence: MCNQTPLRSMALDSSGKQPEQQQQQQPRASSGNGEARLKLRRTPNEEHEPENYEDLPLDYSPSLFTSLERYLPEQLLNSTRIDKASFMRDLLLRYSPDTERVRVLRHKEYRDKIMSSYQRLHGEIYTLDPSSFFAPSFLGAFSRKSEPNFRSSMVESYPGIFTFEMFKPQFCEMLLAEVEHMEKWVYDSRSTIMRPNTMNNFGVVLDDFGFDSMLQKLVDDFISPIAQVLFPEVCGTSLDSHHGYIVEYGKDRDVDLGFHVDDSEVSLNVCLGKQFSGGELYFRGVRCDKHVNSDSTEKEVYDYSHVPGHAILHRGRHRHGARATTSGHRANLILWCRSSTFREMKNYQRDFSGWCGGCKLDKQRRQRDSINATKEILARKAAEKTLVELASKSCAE

[2] = molecular target: T2, ICU11-3xHA (gICU11-HA in icu11-3) (Arabidopsis) (UniProt Q3ED68); test: affinity purification with mass spectrometry; coIP-MS with 3xHA-tagged ICU11 as bait from Arabidopsis plants (gICU11-HA icu11-3), control icu11-3; two independent experiments; procedure in SI Appendix
T2 sequence: T1 sequence

[3] = molecular target: T3, GFP-CLF (35S:GFP-CLF in clf-50) (Arabidopsis) (UniProt P93831); test: affinity purification with mass spectrometry; coIP-MS with GFP-tagged baits from Arabidopsis plants (gICU11-GFP icu11-3; 35S:GFP-CLF clf-50; gSWN-GFP), control 35S::GFP; two independent experiments; procedure in SI Appendix
T3 sequence: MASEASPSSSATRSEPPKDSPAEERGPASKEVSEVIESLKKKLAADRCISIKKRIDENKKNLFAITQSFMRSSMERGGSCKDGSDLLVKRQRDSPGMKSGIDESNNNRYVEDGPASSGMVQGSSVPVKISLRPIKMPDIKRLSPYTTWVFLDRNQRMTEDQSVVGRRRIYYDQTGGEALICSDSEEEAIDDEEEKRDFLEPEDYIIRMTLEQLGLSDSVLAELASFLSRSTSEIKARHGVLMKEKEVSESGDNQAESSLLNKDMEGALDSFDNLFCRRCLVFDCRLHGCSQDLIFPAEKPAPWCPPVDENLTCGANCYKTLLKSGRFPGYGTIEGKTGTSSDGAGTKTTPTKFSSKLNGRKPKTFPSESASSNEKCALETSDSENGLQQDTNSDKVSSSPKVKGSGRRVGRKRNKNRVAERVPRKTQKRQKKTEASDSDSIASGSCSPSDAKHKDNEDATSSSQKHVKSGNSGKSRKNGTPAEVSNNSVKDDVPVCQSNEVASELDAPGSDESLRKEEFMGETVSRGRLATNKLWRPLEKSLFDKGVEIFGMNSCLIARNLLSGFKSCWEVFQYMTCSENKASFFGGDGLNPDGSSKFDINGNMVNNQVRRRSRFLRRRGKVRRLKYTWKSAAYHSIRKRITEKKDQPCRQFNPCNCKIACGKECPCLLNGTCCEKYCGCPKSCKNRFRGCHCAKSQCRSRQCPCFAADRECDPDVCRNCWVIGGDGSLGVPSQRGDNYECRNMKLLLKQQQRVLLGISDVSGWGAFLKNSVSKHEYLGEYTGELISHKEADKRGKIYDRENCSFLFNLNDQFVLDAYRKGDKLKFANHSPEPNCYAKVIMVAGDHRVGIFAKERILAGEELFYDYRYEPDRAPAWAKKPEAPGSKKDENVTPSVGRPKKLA

[4] = molecular target: T4, SWN-GFP (gSWN-GFP) (Arabidopsis) (UniProt Q9ZSM8); test: as above
T4 sequence: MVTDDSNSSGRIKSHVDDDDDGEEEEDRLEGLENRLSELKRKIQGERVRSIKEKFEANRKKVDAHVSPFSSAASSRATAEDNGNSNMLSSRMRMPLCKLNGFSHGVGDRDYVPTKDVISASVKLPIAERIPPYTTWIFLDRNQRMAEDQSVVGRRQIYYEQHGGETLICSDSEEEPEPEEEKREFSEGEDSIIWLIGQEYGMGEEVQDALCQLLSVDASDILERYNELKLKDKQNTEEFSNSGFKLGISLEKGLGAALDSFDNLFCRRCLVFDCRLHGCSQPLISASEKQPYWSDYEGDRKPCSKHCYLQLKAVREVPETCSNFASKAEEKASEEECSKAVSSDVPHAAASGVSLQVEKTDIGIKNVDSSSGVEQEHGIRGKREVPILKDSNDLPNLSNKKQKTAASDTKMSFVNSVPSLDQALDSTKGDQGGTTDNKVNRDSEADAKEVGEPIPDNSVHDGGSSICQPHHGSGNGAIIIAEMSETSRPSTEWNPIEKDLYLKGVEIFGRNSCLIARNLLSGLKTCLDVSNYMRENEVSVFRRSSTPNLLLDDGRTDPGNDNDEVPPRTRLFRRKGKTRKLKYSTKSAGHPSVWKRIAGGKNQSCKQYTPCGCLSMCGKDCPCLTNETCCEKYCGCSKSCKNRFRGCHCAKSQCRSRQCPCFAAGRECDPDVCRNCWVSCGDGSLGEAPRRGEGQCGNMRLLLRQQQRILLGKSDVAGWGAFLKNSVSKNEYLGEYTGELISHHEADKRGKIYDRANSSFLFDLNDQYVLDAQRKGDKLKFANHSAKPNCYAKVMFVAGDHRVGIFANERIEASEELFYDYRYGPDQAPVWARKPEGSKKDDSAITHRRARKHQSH

[5] = molecular target: T5, EMF1-3XFLAG (in emf1) (Arabidopsis) (UniProt Q9LYD9); test: affinity purification with mass spectrometry; coIP-MS with EMF1-3XFLAG as bait from Arabidopsis plants (EMF1-3XFLAG emf1), control Col-0; two independent experiments; procedure in SI Appendix
T5 sequence: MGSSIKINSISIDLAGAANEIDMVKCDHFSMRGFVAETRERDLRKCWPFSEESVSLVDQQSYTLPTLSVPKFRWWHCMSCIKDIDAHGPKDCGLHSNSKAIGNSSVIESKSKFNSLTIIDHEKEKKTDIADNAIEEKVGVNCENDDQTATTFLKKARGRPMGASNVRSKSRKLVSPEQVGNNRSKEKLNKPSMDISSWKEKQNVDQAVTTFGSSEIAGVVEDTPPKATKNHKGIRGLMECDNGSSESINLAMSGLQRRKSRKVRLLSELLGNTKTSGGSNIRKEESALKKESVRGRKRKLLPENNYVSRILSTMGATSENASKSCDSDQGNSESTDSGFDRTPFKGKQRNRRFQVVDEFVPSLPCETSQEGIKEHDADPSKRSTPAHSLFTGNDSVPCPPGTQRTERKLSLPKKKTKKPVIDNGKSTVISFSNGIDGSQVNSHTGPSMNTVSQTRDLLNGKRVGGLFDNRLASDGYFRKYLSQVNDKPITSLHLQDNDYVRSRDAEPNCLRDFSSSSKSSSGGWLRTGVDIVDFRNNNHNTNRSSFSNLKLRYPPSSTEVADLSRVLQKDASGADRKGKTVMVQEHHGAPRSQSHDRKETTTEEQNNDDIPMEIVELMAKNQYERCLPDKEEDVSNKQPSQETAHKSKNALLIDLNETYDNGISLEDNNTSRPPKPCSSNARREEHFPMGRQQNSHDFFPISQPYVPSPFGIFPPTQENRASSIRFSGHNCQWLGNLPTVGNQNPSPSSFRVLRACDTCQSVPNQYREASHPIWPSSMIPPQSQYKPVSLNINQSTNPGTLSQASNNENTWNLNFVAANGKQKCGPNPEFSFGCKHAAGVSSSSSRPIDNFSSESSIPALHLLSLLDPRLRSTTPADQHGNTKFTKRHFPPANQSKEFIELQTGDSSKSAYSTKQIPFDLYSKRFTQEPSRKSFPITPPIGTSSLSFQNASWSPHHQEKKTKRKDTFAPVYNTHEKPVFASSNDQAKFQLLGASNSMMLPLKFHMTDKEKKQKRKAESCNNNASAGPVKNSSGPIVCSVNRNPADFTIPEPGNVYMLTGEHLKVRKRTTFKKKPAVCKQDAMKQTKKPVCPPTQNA

Row | binding [1] | binding [2] | binding [3] | binding [4] | binding [5] | Sequence
1 | no binding | no binding |  |  |  | VERNALIZATION …3 (from UniProt Q9FIE3 1-620)
2 | binds | binds | binds | binds | binds | MULTICOPY SUPPRESSOR OF IRA1 (from UniProt O22467 1-424)
